Reference: publication PMC2672617, “Abl Kinase Inhibits the Engulfment of Apopotic Cells in Caenorhabditis elegans” (PLoS Biology, 2009)
Results are given in words; binding and its absence hold for the method and conditions named. Binding seen in cells or lysates may run through a third protein. Some binding calls cover weakened binding; strength is not graded here. Sequences can lack the tags named with a protein.

The chains behind the UniProt entries cited, without tags or fusion partners.
UniProt P08659: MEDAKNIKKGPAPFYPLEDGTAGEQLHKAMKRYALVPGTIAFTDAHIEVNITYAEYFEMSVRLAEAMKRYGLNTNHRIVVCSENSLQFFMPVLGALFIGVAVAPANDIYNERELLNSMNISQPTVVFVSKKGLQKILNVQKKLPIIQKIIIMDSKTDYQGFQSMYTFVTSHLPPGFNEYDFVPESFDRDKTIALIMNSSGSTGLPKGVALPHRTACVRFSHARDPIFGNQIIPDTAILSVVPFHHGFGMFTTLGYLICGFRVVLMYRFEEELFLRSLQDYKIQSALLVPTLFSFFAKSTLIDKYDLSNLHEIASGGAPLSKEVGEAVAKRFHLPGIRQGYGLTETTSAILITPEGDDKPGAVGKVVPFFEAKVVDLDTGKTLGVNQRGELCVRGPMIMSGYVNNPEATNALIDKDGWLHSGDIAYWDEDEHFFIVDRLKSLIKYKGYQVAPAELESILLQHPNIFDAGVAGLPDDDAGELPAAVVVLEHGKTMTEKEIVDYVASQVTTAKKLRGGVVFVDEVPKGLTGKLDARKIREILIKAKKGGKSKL

B1: ABL-1(112–611), N-terminal fragment of C. elegans ABL-1 (domain or fragment, UniProt P03949 112-611, looked up)
chain: SSSSSAPLFVALYDFHGVGEEQLSLRKGDQVRILGYNKNNEWCEARLYSTRKNDASNQRRLGEIGWVPSNFIAPYNSLDKYTWYHGKISRSDSEAILGSGITGSFLVRESETSIGQYTISVRHDGRVFHYRINVDNTEKMFITQEVKFRTLGELVHHHSVHADGLICLLMYPASKKDKGRGLFSLSPNAPDEWELDRSEIIMHNKLGGGQYGDVYEGYWKRHDCTIAVKALKEDAMPLHEFLAEAAIMKDLHHKNLVRLLGVCTHEAPFYIITEFMCNGNLLEYLRRTDKSLLPPIILVQMASQIASGMSYLEARHFIHRDLAARNCLVSEHNIVKIADFGLARFMKEDTYTAHAGAKFPIKWTAPEGLAFNTFSSKSDVWAFGVLLWEIATYGMAPYPGVELSNVYGLLENGFRMDGPQGCPPSVYRLMLQCWNWSPSDRPRFRDIHFNLENLISSNSLNDEVQKQLKKNNDKKLESDKRRSNVRERSDSKSRHSSHHD
modifications: labeled with 35S in vitro
notes: contains the SH3, SH2 and tyrosine kinase domains; Cloned in pDEST14 (Gateway) for expression in vitro; also called N-terminal half of ABL-1; source: in vitro translated (TNT T7 Quick Coupled Transcription/Translation system, Promega)
B2: ABL-1(606–1,224), C-terminal fragment of C. elegans ABL-1 (domain or fragment, UniProt P03949 606-1224)
chain: HSSHHDRDRDRESLHSRNSNPEIPNRSFIRTDDSVSFFNPSTTSKVTSFRAQGPPFPPPPQQNTKPKLLKSVLNSNARHASEEFERNEQDDVVPLAEKNVRKAVTRLGGTMPKGQRIDAYLDSMRRVDSWKESTDADNEGAGSSSLSRTVSNDSLDTLPLPDSMNSSTYVKMHPASGENVFLRQIRSKLKKRSETPELDHIDSDTADETTKSEKSPFGSLNKSSIKYPIKNAPEFSENHSRVSPVPVPPSRNASVSVRPDSKAEDSSDETTKDVGMWGPKHAVTRKIEIVKNDSYPNVEGELKAKIRNLRHVPKEESNTSSQEDLPLDATDNTNDSIIVIPRDEKAKVRQLVTQKVSPLQHHRPFSLQCPNNSTSSAISHSEHADSSETSSLSGVYEERMKPELPRKRSNGDTKVVPVTWIINGEKEPNGMARTKSLRDITSKFEQLGTASTIESKIEEAVPYREHALEKKGTSKRFSMLEGSNELKHVVPPRKNRNQDESGSIDEEPVSKDMIVSLLKVIQKEFVNLFNLASSEITDEKLQQFVIMADNVQKLHSTCSVYAEQISPHSKFRFKELLSQLEIYNRQIKFSHNPRAKPVDDKLKMAFQDCFDQIMRLVDR
modifications: labeled with 35S in vitro

Each molecule was assayed against T1, GST-ABI-1 (glutathione-S-transferase fused to the N terminus of full-length C. elegans ABI-1) (C. elegans) (UniProt Q10929) (assay: pull-down; GST, GST-ABI or GST-ABIΔ on glutathione beads incubated with 25 μl of a 100 μl 35S-labelled in vitro transcription/translation reaction; 2 h at 4 °C in PBB2 (25 mM HEPES pH 7.6, 150 mM NaCl, 5 mM MgCl2, 0.1 mM EDTA, 0.1% Tween-20, 0.25% BSA); washes with 300 and 250 mM NaCl; SDS-PAGE, autoradiography, phosphorimager quantitation; only the target purified).
T1 sequence: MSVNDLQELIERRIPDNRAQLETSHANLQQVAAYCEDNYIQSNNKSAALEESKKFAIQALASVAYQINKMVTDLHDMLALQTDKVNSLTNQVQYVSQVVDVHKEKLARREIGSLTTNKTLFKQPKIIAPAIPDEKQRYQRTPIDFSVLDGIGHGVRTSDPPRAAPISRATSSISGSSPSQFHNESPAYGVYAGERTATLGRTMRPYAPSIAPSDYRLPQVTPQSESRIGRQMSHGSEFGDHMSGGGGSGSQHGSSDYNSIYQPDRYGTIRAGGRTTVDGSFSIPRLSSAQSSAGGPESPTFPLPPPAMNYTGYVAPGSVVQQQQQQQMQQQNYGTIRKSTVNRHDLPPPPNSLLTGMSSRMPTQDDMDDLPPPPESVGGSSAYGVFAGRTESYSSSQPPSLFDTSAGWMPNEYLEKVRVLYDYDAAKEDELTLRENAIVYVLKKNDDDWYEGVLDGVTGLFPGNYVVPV
With “Luciferase (control) (from UniProt P08659 1-550) (enzyme)” the binding was “no binding”. With B1 the binding was “binds”. For B2, the binding was “no binding”.
